In article PMC7968666, “The pharmacokinetics and drug-drug interactions of ivermectin in Aedes aegypti mosquitoes” (PLoS Pathogens, 2021):
Several values for one entry are separate records, joined by “and”; a condition that tells them apart may be missing. Equal entries are not always repeated.

Assay: Mosquito weight post feeding and weight progression over 72 h
Format: in vivo, Aedes aegypti
Details: human blood with 0.1 µg/ml IVM, listed as IVM

## CCC(C)C1OC2(CCC1C)CC1CC(CC=C(C)C(OC3CC(OC)C(OC4CC(OC)C(O)C(C)O4)C(C)O3)C(C)C=CC=C3COC4C(O)C(C)=CC(C(=O)O1)C34O)O2 (stereo not shown) [ivermectin]
0 h post feeding, Batch 1, individual mosquitoes 1-20, combination plus 5 µg/ml KCZ
  Mosquito weight: 5.017 mg and 3.572 mg and 5.592 mg and 4.669 mg and 4.994 mg and 3.599 mg and 4.392 mg and 4.176 mg and 4.146 mg and 3.330 mg and 4.196 mg and 5.275 mg and 4.179 mg and 4.616 mg and 4.690 mg and 4.171 mg and 4.842 mg and 3.381 mg and 5.195 mg and 4.558 mg
0 h post feeding, Batch 2, individual mosquitoes 1-20, combination plus 10 µg/ml RIF
  Mosquito weight: 3.795 mg and 3.369 mg and 4.537 mg and 3.266 mg and 4.565 mg and 3.801 mg and 4.884 mg and 4.193 mg and 4.130 mg and 3.786 mg and 4.215 mg and 3.859 mg and 4.556 mg and 4.141 mg and 3.929 mg and 3.588 mg and 3.968 mg and 3.953 mg and 4.300 mg and 4.181 mg
0 h post feeding, Batch 3, individual mosquitoes 1-20, combination plus 10 µg/ml RTV
  Mosquito weight: 4.551 mg and 5.437 mg and 4.711 mg and 3.903 mg and 6.381 mg and 4.462 mg and 5.720 mg and 5.295 mg and 4.498 mg and 4.376 mg and 5.186 mg and 3.766 mg and 4.386 mg and 5.523 mg and 4.450 mg and 4.273 mg and 4.241 mg and 4.811 mg and 4.742 mg and 4.802 mg
0 h post feeding, Batch 4, individual mosquitoes 1-20, combination plus 10 µg/ml PBO
  Mosquito weight: 5.413 mg and 4.224 mg and 4.850 mg and 4.608 mg and 5.380 mg and 5.368 mg and 5.323 mg and 5.167 mg and 5.135 mg and 4.140 mg and 5.384 mg and 3.932 mg and 4.181 mg and 5.632 mg and 5.651 mg and 5.358 mg and 4.438 mg and 5.265 mg and 4.979 mg and 5.544 mg
6 h post feeding, Batch 1, individual mosquitoes 1-20, combination plus 5 µg/ml KCZ
  Mosquito weight: 3.283 mg and 3.751 mg and 3.701 mg and 3.169 mg and 3.746 mg and 3.251 mg and 3.385 mg and 3.427 mg and 3.568 mg and 4.108 mg and 3.104 mg and 3.912 mg and 3.526 mg and 3.566 mg and 3.559 mg and 3.495 mg and 2.992 mg and 3.969 mg and 4.038 mg and 3.449 mg
6 h post feeding, Batch 2, individual mosquitoes 1-20, combination plus 10 µg/ml RIF
  Mosquito weight: 3.212 mg and 3.802 mg and 3.205 mg and 3.664 mg and 3.074 mg and 3.056 mg and 3.158 mg and 3.511 mg and 3.089 mg and 3.412 mg and 3.963 mg and 3.328 mg and 3.169 mg and 2.830 mg and 3.319 mg and 3.192 mg and 3.394 mg and 3.421 mg and 3.071 mg and 3.266 mg
6 h post feeding, Batch 3, individual mosquitoes 1-20, combination plus 10 µg/ml RTV
  Mosquito weight: 4.325 mg and 4.026 mg and 3.722 mg and 4.153 mg and 3.963 mg and 3.845 mg and 3.946 mg and 3.718 mg and 3.658 mg and 3.841 mg and 4.400 mg and 4.374 mg and 4.517 mg and 4.258 mg and 3.745 mg (2×) and 3.857 mg and 3.805 mg and 4.274 mg and 4.475 mg
6 h post feeding, Batch 4, individual mosquitoes 1-20, combination plus 10 µg/ml PBO
  Mosquito weight: 4.158 mg and 4.242 mg and 4.596 mg and 4.339 mg and 3.824 mg and 4.143 mg and 4.505 mg and 3.991 mg and 3.450 mg and 3.822 mg and 3.528 mg and 3.945 mg and 3.735 mg and 4.634 mg and 4.475 mg and 3.883 mg and 3.983 mg and 4.177 mg and 3.869 mg and 4.031 mg
12 h post feeding, Batch 1, individual mosquitoes 1-20, combination plus 5 µg/ml KCZ
  Mosquito weight: 3.447 mg and 3.000 mg and 3.477 mg and 3.260 mg and 3.698 mg and 3.473 mg (2×) and 3.102 mg and 2.871 mg and 2.836 mg and 3.011 mg and 2.308 mg and 3.090 mg and 3.509 mg and 3.483 mg and 3.417 mg and 2.956 mg and 3.332 mg and 3.578 mg and 2.936 mg
12 h post feeding, Batch 2, individual mosquitoes 1-20, combination plus 10 µg/ml RIF
  Mosquito weight: 3.277 mg and 2.842 mg and 3.328 mg and 3.585 mg and 2.881 mg and 3.243 mg and 2.960 mg and 3.225 mg and 3.026 mg and 2.879 mg and 3.170 mg and 2.829 mg and 3.447 mg and 3.080 mg and 3.107 mg and 2.899 mg and 3.479 mg and 3.127 mg and 2.730 mg and 3.229 mg
12 h post feeding, Batch 3, individual mosquitoes 1-20, combination plus 10 µg/ml RTV
  Mosquito weight: 3.563 mg and 4.087 mg and 3.545 mg and 3.859 mg and 4.347 mg and 4.407 mg and 4.094 mg and 3.777 mg and 3.798 mg and 5.418 mg and 4.019 mg and 3.912 mg and 3.891 mg and 4.477 mg and 3.923 mg and 3.825 mg and 4.202 mg and 4.851 mg and 4.304 mg and 3.595 mg
12 h post feeding, Batch 4, individual mosquitoes 1-20, combination plus 10 µg/ml PBO
  Mosquito weight: 3.934 mg and 3.493 mg and 3.369 mg and 4.284 mg and 3.685 mg and 3.886 mg and 4.278 mg (2×) and 3.434 mg and 3.366 mg and 3.279 mg and 3.140 mg and 3.075 mg and 3.415 mg and 3.926 mg and 3.889 mg and 3.833 mg and 3.924 mg and 3.650 mg and 3.462 mg
24 h post feeding, Batch 1, individual mosquitoes 1-20, combination plus 5 µg/ml KCZ
  Mosquito weight: 3.282 mg and 2.786 mg and 2.846 mg and 2.865 mg and 2.526 mg and 3.744 mg and 2.799 mg and 2.735 mg and 2.860 mg and 3.283 mg and 2.793 mg and 3.361 mg and 2.771 mg and 3.164 mg and 2.701 mg and 3.254 mg and 3.573 mg and 3.084 mg and 2.796 mg and 3.062 mg
24 h post feeding, Batch 2, individual mosquitoes 1-20, combination plus 10 µg/ml RIF
  Mosquito weight: 2.275 mg and 2.839 mg and 2.001 mg and 2.013 mg and 2.497 mg and 2.622 mg and 2.465 mg and 2.533 mg and 3.122 mg and 2.471 mg and 2.221 mg and 2.556 mg and 2.757 mg and 3.077 mg and 2.536 mg and 3.017 mg and 2.478 mg and 3.120 mg and 2.508 mg and 3.070 mg
24 h post feeding, Batch 3, individual mosquitoes 1-20, combination plus 10 µg/ml RTV
  Mosquito weight: 3.703 mg and 3.598 mg and 3.206 mg and 3.327 mg and 3.405 mg and 3.440 mg and 3.847 mg and 3.373 mg and 3.715 mg and 3.082 mg and 3.324 mg and 3.087 mg and 2.609 mg and 3.466 mg and 3.868 mg and 3.334 mg and 3.632 mg and 3.622 mg and 3.155 mg and 2.996 mg
24 h post feeding, Batch 4, individual mosquitoes 1-20, combination plus 10 µg/ml PBO
  Mosquito weight: 3.685 mg and 3.161 mg and 3.647 mg and 3.037 mg and 2.995 mg and 3.398 mg and 3.359 mg and 3.091 mg and 2.877 mg and 3.249 mg and 3.472 mg and 2.594 mg and 3.437 mg and 3.456 mg and 3.489 mg and 3.115 mg and 3.328 mg and 3.360 mg and 3.885 mg and 3.481 mg
36 h post feeding, Batch 1, individual mosquitoes 1-20, combination plus 5 µg/ml KCZ
  Mosquito weight: 3.104 mg and 2.768 mg and 2.628 mg and 2.840 mg and 2.190 mg and 1.937 mg and 1.796 mg and 2.865 mg and 2.386 mg and 2.294 mg and 2.476 mg and 2.320 mg and 3.075 mg and 3.173 mg and 3.117 mg and 3.032 mg and 2.329 mg and 3.159 mg and 2.464 mg and 2.675 mg
36 h post feeding, Batch 2, individual mosquitoes 1-20, combination plus 10 µg/ml RIF
  Mosquito weight: 2.427 mg and 2.226 mg and 2.546 mg and 2.167 mg and 2.993 mg and 2.255 mg (2×) and 2.535 mg and 2.513 mg and 2.584 mg and 2.209 mg and 2.984 mg and 1.920 mg and 2.953 mg and 3.048 mg and 2.244 mg and 2.075 mg and 2.561 mg and 2.135 mg and 2.442 mg
36 h post feeding, Batch 3, individual mosquitoes 1-20, combination plus 10 µg/ml RTV
  Mosquito weight: 2.701 mg and 2.714 mg and 2.133 mg and 3.433 mg and 2.806 mg and 2.871 mg and 2.840 mg and 3.278 mg and 2.790 mg and 3.064 mg and 2.541 mg and 3.067 mg and 2.841 mg and 2.808 mg and 2.780 mg and 3.117 mg and 2.904 mg and 3.255 mg and 2.920 mg and 2.619 mg
36 h post feeding, Batch 4, individual mosquitoes 1-20, combination plus 10 µg/ml PBO
  Mosquito weight: 2.887 mg and 2.811 mg and 3.148 mg and 2.888 mg and 2.744 mg and 2.818 mg and 3.154 mg and 3.206 mg and 2.920 mg and 3.152 mg and 2.943 mg and 2.451 mg and 3.218 mg and 2.483 mg and 3.742 mg and 3.489 mg and 2.160 mg and 2.834 mg and 2.580 mg and 2.857 mg
48 h post feeding, Batch 1, individual mosquitoes 1-20, combination plus 5 µg/ml KCZ
  Mosquito weight: 2.806 mg and 2.727 mg and 2.654 mg and 2.610 mg and 2.308 mg and 2.545 mg and 2.328 mg and 2.255 mg and 2.504 mg and 2.591 mg and 1.970 mg and 1.626 mg and 2.634 mg and 2.605 mg and 2.551 mg and 1.974 mg and 2.753 mg and 3.435 mg and 2.233 mg and 2.736 mg
48 h post feeding, Batch 2, individual mosquitoes 1-20, combination plus 10 µg/ml RIF
  Mosquito weight: 2.361 mg and 2.382 mg and 1.923 mg and 2.173 mg and 1.936 mg and 2.122 mg and 1.887 mg and 2.024 mg and 2.031 mg and 2.226 mg and 1.896 mg and 1.894 mg and 1.651 mg and 2.319 mg and 2.068 mg and 2.257 mg and 2.242 mg and 2.260 mg and 1.939 mg and 2.221 mg
48 h post feeding, Batch 3, individual mosquitoes 1-20, combination plus 10 µg/ml RTV
  Mosquito weight: 2.830 mg and 2.547 mg and 2.257 mg and 3.123 mg and 2.667 mg and 2.303 mg and 2.397 mg and 2.885 mg and 2.753 mg and 2.222 mg and 2.666 mg and 3.231 mg and 3.254 mg and 2.456 mg and 2.688 mg and 2.726 mg and 2.681 mg and 2.327 mg and 2.478 mg and 2.339 mg
48 h post feeding, Batch 4, individual mosquitoes 1-20, combination plus 10 µg/ml PBO
  Mosquito weight: 2.715 mg and 2.519 mg and 2.885 mg and 2.469 mg and 2.720 mg and 2.692 mg and 2.566 mg and 2.406 mg and 2.710 mg and 2.629 mg and 2.809 mg and 2.459 mg and 2.723 mg and 2.899 mg and 2.826 mg and 2.829 mg and 2.606 mg and 2.437 mg and 3.080 mg and 2.132 mg
72 h post feeding, Batch 1, individual mosquitoes 1-20, combination plus 5 µg/ml KCZ
  Mosquito weight: 2.286 mg and 1.887 mg and 1.924 mg and 2.516 mg and 2.068 mg and 1.820 mg and 2.085 mg and 1.940 mg and 1.781 mg and 2.375 mg and 1.321 mg and 2.252 mg and 2.339 mg and 2.262 mg and 1.976 mg and 2.513 mg and 2.173 mg and 2.131 mg and 2.087 mg and 1.851 mg
72 h post feeding, Batch 2, individual mosquitoes 1-20, combination plus 10 µg/ml RIF
  Mosquito weight: 1.769 mg and 2.064 mg and 1.565 mg and 2.426 mg and 1.822 mg and 1.804 mg and 1.800 mg and 2.334 mg and 2.200 mg and 1.817 mg and 2.107 mg and 1.642 mg and 1.435 mg and 1.962 mg and 1.981 mg and 2.100 mg and 1.920 mg and 2.177 mg and 1.622 mg and 1.745 mg
72 h post feeding, Batch 3, individual mosquitoes 1-20, combination plus 10 µg/ml RTV
  Mosquito weight: 1.614 mg and 1.875 mg and 2.037 mg and 2.180 mg and 2.119 mg and 2.448 mg and 2.545 mg and 2.406 mg and 2.032 mg and 2.236 mg and 2.670 mg and 2.309 mg and 2.019 mg and 2.606 mg and 2.328 mg and 2.378 mg and 2.001 mg and 1.955 mg and 1.741 mg and 2.293 mg
72 h post feeding, Batch 4, individual mosquitoes 1-20, combination plus 10 µg/ml PBO
  Mosquito weight: 2.320 mg and 2.115 mg and 2.498 mg and 2.186 mg and 2.043 mg and 1.969 mg and 2.137 mg and 2.339 mg and 2.449 mg and 2.338 mg and 2.454 mg and 2.078 mg and 2.330 mg and 2.255 mg and 2.399 mg and 2.095 mg and 2.634 mg and 2.531 mg and 2.159 mg and 1.991 mg
